Patent US9073931B2, “Liver X receptor modulators” (Vitae Pharmaceuticals, Inc., priority 2012, dated 2015)
The structures given here were assigned with low confidence; some may be wrong.

Amino acid sequences for entries named in this document (tags omitted). Residues count along the entry.
UniProt P55055, 222-460 limits assumed: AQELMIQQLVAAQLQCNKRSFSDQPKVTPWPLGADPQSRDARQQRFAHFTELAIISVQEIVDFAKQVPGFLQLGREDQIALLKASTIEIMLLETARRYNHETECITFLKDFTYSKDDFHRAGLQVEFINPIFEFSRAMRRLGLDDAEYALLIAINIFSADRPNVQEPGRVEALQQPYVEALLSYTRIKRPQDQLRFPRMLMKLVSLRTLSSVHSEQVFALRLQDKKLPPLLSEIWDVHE

Target: LXR β LBD protein (Homo sapiens (Human), UniProt P55055)
Experiment: LXR β radioligand binding assay (SPA, [3H]T0901317 competition)
Settings: read-out: LXRβ BINDING Ki; competition with 15 nM [3H]T0901317, LXRβ LBD

Row | Ki | Compound
1 | > 2.5 µM | CC(C)[C@H]1c2cc3cc(CO)c(S(C)(=O)=O)cc3n2CCN1c1ncc(C(N)=O)c(C(F)(F)F)n1
2 | 0.05 µM | CC(C)[C@@H]1c2cc3cc(CO)c(S(C)(=O)=O)cc3n2CCN1c1ncc(C(N)=O)c(C(F)(F)F)n1
